The list is a part of this screen's results and no random one: it gathers tests that were run many times, whatever their T/C, doses with no T/C, and many T/C values between a quarter and a half above the control. Further doses and runs are listed elsewhere. T/C: endpoint of the treated group in % of that of the vehicle group. Some doses have a count of surviving animals in place of a T/C: the source holds a T/C of zero for them, seemingly a mark for toxic or unscored doses. Some survivor counts are full or nearly so, which does not show that the dose was tolerated: survival well below the control is almost never listed, so the zero probably covers shortened survival too. Survivors were counted at the toxicity check, usually on the fifth day, unless a day is given; later deaths do not show. Schedule codes are those of the source, taken here to give the interval after Q, in days (D) or hours (H), and the number of doses after X. Additions like (4×) count equal records among those shown. Some entries were tested several times; their values stand side by side, smallest first. Where survival is the endpoint, the PubChem record calls one and a half times the control and up active, and a quarter to a half above the control has no call in these data; cut-offs in other NCI protocols can differ. Some T/C values carry the count of animals alive at the toxicity check (mostly the fifth day); where none is given, no animal had died by that day.
Tested on: P388 leukemia ip, CD2F1 mice, survival T/C
Assay: NCI In Vivo Anticancer Drug Screen. Data for tumor model P388 Leukemia (intraperitoneal) in CD2F1 (CDF1) mice
Details: T/C endpoint: median survival time, higher T/C = longer survival
[1] = dose: 50.0 mg/kg/injection, schedule: Q01DX005 (ip), vehicle: saline with Tween-80
[2] = dose: 7.5 mg/kg/injection, schedule: Q01DX005 (ip), vehicle: saline
[3] = dose: 15.0 mg/kg/injection, schedule: Q01DX005 (ip), vehicle: saline
[4] = dose: 60.0 mg/kg/injection, schedule: Q01DX005 (ip), vehicle: saline
[5] = dose: 120.0 mg/kg/injection, schedule: Q01DX005 (ip), vehicle: saline
[6] = dose: 240.0 mg/kg/injection, schedule: Q01DX005 (ip), vehicle: saline
[7] = dose: 50.0 mg/kg/injection, schedule: Q01DX009 (ip), vehicle: saline with Tween-80
[8] = dose: 100.0 mg/kg/injection, schedule: Q01DX009 (ip), vehicle: saline with Tween-80
[9] = dose: 200.0 mg/kg/injection, schedule: Q01DX009 (ip), vehicle: saline with Tween-80
[10] = dose: 100.0 mg/kg/injection, schedule: Q01DX005 (ip), vehicle: saline with Tween-80
[11] = dose: 200.0 mg/kg/injection, schedule: Q01DX005 (ip), vehicle: saline with Tween-80
[12] = dose: 200.0 mg/kg/injection, schedule: Q01DX009 (ip), vehicle: saline

S=P(N1CC1)(N1CC1)N1CC1
T/C (dose: 1.5 mg/kg/injection, schedule: Q01DX005 (ip), vehicle: saline): 132 % of control
T/C (dose: 1.5 mg/kg/injection, schedule: Q01DX009 (ip), vehicle: saline, evaluated on day 30): 148 % of control
T/C (dose: 1.5 mg/kg/injection, schedule: Q01DX009 (ip), vehicle: saline, evaluated on day 60): 135 % of control
T/C (dose: 2.5 mg/kg/injection, schedule: Q01DX005 (ip), vehicle: saline): 129 % of control
T/C (dose: 2.5 mg/kg/injection, schedule: Q04DX003 (ip), vehicle: water): 125 % of control
T/C (dose: 3.0 mg/kg/injection, schedule: Q01DX005 (ip), vehicle: saline): 145 and 148 % of control
T/C (dose: 5.0 mg/kg/injection, schedule: Q04DX003 (ip), vehicle: water): 128 and 135 % of control
T/C (dose: 5.4 mg/kg/injection, schedule: Q04DX002 (ip), vehicle: saline): 133 % of control
survivor count (dose: 10.0 mg/kg/injection, schedule: Q01DX005 (ip), vehicle: saline): 8 of 8
survivor count (dose: 12.0 mg/kg/injection, schedule: Q01DX005 (ip), vehicle: saline): 6 of 8 and 6 of 6
survivor count (dose: 12.0 mg/kg/injection, schedule: Q01DX009 (ip), vehicle: saline): 6 of 6 (2×)
survivor count (dose: 16.0 mg/kg/injection, schedule: Q01DX009 (ip), vehicle: saline): 6 of 6
survivor count (dose: 24.0 mg/kg/injection, schedule: Q01DX009 (ip), vehicle: saline): 6 of 6
survivor count (dose: 32.0 mg/kg/injection, schedule: Q01DX009 (ip), vehicle: saline): 6 of 6

COC(C(=O)C(O)C(C)O)C1Cc2cc3cc(OC4CC(OC(C)=O)C(OC5CC(O)C(OC)C(C)O5)C(C)O4)cc(O)c3c(O)c2C(=O)C1OC1CC(OC2CC(OC3CC(C)(O)C(OC(=O)C(C)C)C(C)O3)C(O)C(C)O2)C(O)C(C)O1 (stereo not given)
T/C (dose: 0.02 mg/kg/injection, schedule: Q01DX010 (ip), vehicle: saline): 125 % of control
T/C (dose: 0.05 mg/kg/injection, schedule: Q01DX010 (ip), vehicle: saline): 125 and 130 % of control
T/C (dose: 0.1 mg/kg/injection, schedule: Q01DX010 (ip), vehicle: saline): 120, 130, 130 [5 of 6 alive], 135, 145 % of control
T/C (dose: 0.2 mg/kg/injection, schedule: Q01DX010 (ip), vehicle: saline): 130, 145 (3×), 150 % of control [5 of 6 alive]
T/C (dose: 0.4 mg/kg/injection, schedule: Q01DX010 (ip), vehicle: saline): 135, 150, 165 (2×), 170 % of control
T/C (dose: 0.8 mg/kg/injection, schedule: Q01DX010 (ip), vehicle: saline): 140 [5 of 6 alive], 150, 160, 180 % of control
T/C (dose: 1.6 mg/kg/injection, schedule: Q01DX010 (ip), vehicle: saline): 100, 190, 190 % of control [5 of 6 alive] (2×)
survivor count (dose: 3.2 mg/kg/injection, schedule: Q01DX010 (ip), vehicle: saline): 1 of 6

CC(=O)OC1C(C)OC(OC(=O)C2CCC3C(C2)OC2(CC(OC(=O)/C=C/c4ccccc4)C(C)CO2)C32CO2)C(OC2OC(C)C(O)C(OC(C)=O)C2O)C1O (stereo not given)
T/C (dose: 3.34 mg/kg/injection, schedule: Q01DX009 (ip), vehicle: saline + alcohol): 130 % of control
T/C (dose: 12.5 mg/kg/injection, schedule: Q01DX005 (ip), vehicle: saline with Tween-80): 138 % of control
T/C (dose: 25.0 mg/kg/injection, schedule: Q01DX005 (ip), vehicle: saline with Tween-80): 140 % of control
T/C [1]: 148 % of control

C[CH2][Sn]([CH2]C)([S]CCS(=O)(=O)O)[S]CCS(=O)(=O)O
T/C (dose: 3.75 mg/kg/injection, schedule: Q01DX005 (ip), vehicle: saline): 125 and 131 % of control
T/C [2]: 127 and 137 % of control
survivor count [3]: 1 of 6
survivor count [4]: 0 of 6
survivor count [5]: 0 of 6
survivor count [6]: 0 of 6

C=CCNC(=S)N/N=C/c1nccc(-c2ccccc2)c1C
survivor count (dose: 6.25 mg/kg/injection, schedule: Q01DX009 (ip), vehicle: saline with Tween-80): 6 of 6
T/C (dose: 12.5 mg/kg/injection, schedule: Q01DX009 (ip), vehicle: saline with Tween-80): 126 and 130 % of control
T/C (dose: 25.0 mg/kg/injection, schedule: Q01DX009 (ip), vehicle: saline with Tween-80): 132 % of control
survivor count [7]: 6 of 6
survivor count [8]: 1 of 6
survivor count [9]: 0 of 6

NNc1nc2ccccc2s1
survivor count [7]: 3 of 6
survivor count [8]: 0 of 6
survivor count [9]: 0 of 6

C=C(CN1CCCC1)C(=O)c1ccc(OC)cc1
survivor count [2]: 3 of 6
survivor count [3]: 1 of 6
survivor count (dose: 30.0 mg/kg/injection, schedule: Q01DX005 (ip), vehicle: saline): 0 of 6
survivor count [4]: 0 of 6
survivor count [5]: 0 of 6
survivor count [6]: 0 of 6

NCCCSc1ccccc1
survivor count [6]: 0 of 6

CCN(CC)CCNc1ncnc2c1cnn2C
survivor count [10]: 0 of 5
survivor count [11]: 0 of 5

O=C(O)c1cc(I)cc(I)c1
survivor count (dose: 300.0 mg/kg/injection, schedule: Q01DX009 (ip), vehicle: saline with Tween-80): 3 of 6

CCOC(=O)C1=CNc2ccccc2N=C1N
survivor count [1]: 2 of 5
survivor count [10]: 0 of 5
survivor count [11]: 0 of 5

N#CC(=O)Nc1ccc(F)cc1
survivor count (dose: 30.0 mg/kg/injection, schedule: Q01DX005 (ip), vehicle: saline with Tween-80): 1 of 6
survivor count (dose: 60.0 mg/kg/injection, schedule: Q01DX005 (ip), vehicle: saline with Tween-80): 0 of 6
survivor count (dose: 120.0 mg/kg/injection, schedule: Q01DX005 (ip), vehicle: saline with Tween-80): 0 of 6
survivor count (dose: 240.0 mg/kg/injection, schedule: Q01DX005 (ip), vehicle: saline with Tween-80): 0 of 6

Cc1cc2nc3c(C4OCC(O)C4O)nn(-c4ccc(F)cc4)c3nc2cc1C (stereo not given)
survivor count (dose: 50.0 mg/kg/injection, schedule: Q01DX005 (ip), vehicle: Klucel (hydroxypropylcellulose) (HPC)): 4 of 4
survivor count (dose: 100.0 mg/kg/injection, schedule: Q01DX005 (ip), vehicle: Klucel (hydroxypropylcellulose) (HPC)): 6 of 6
survivor count (dose: 200.0 mg/kg/injection, schedule: Q01DX005 (ip), vehicle: Klucel (hydroxypropylcellulose) (HPC)): 6 of 6

Nc1ncc[nH]c1=O
survivor count [12]: 3 of 6

O=NC1C2CCC(C2)C1N=O.[Co].[c-]1[c-][c-][cH-][c-]1 (stereo not given)
survivor count [10]: 0 of 6
survivor count [11]: 0 of 6

CC1(C)C2CCC1(C)C(N1C(=O)N=NC1=O)C2 (stereo not given)
survivor count [10]: 3 of 5

N#Cc1ncc(-c2ccccc2)nc1Cl
survivor count [9]: 3 of 6

OCC1OC(n2cnc3cc(Cl)c(Cl)cc32)C(O)C1O (stereo not given)
T/C (dose: 64.0 mg/kg/injection, schedule: Q03HX024 (ip), vehicle: saline with Tween-80): 130 % of control (2×)
survivor count (dose: 128.0 mg/kg/injection, schedule: Q03HX024 (ip), vehicle: saline with Tween-80): 0 of 6 and 3 of 6
survivor count (dose: 256.0 mg/kg/injection, schedule: Q03HX024 (ip), vehicle: saline with Tween-80): 0 of 6
survivor count (dose: 512.0 mg/kg/injection, schedule: Q03HX024 (ip), vehicle: saline with Tween-80): 0 of 6
survivor count (dose: 640.0 mg/kg/injection, schedule: Q04DX003 (ip), vehicle: other): 0 of 10

CNCCN1CCC(Cc2ccccc2)CC1
survivor count [12]: 2 of 4
survivor count (dose: 400.0 mg/kg/injection, schedule: Q01DX009 (ip), vehicle: saline): 0 of 4

Cc1nnc(NN=O)nc1C
T/C (dose: 25.0 mg/kg/injection, schedule: Q01DX009 (ip), vehicle: water): 133 % of control
survivor count (dose: 200.0 mg/kg/injection, schedule: Q01DX009 (ip), vehicle: water): 1 of 6

Reference: PubChem BioAssay AID330 (DTP/NCI, 2004)
